PubChem BioAssay AID504467 (National Center for Advancing Translational Sciences (NCATS), 2011)
Among all 330,000 compounds or so, about 7,700 (2.3%) were called active. This list was built around the results that the source calls inconclusive (neither active nor inactive); the mix of calls is not that of the screen. The call rests on the fitted dose curve; in most records, active means well fitted inhibition curve with a large enough effect; inconclusive means small, poorly fitted or top-dose-only effect, or effect the other way; inactive means flat fitted curve, though single readings scatter. Potencies of inconclusive entries are doubtful fits and often do not repeat.

test: qHTS screen for small molecules that inhibit ELG1-dependent DNA repair in human embryonic kidney (HEK293T) cells expressing luciferase-tagged ELG1; conditions: HEK293T ELG1-luciferase reporter, luminescence, 16 h, DNA damage induced by 5-fluorouridine; activity change, negative = inhibition: at 46.1 µM (top of the series); further: nearly all actives have a fitted effect of over 55% in size
Outline: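 Step one: seed 2,000 cells per well. Step two: pin-transfer compound or DMSO alongside 5-fluorouridine. Step three: incubate 16 hr, 37 °C, 5% CO2. Step four: add ONE-Glo, wait 30 min, read luminescence.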
On the % scale 0 is the no-effect control and ±100 the full control effect; potency means the concentration at half of the fitted maximal effect.

Row | Compound | activity change, negative = inhibition | Potency
1 | COc1ccc(NC(=S)NCc2cccnc2)cc1 | inactive: 12.6% | –
2 | CCOC(=O)N1CCN(C(=O)CSc2ccc(-c3cccc(OC)c3)nn2)CC1 | – | inconclusive: 29.1 µM [inhibitor, single point]
3 | CCCN1C(=O)c2cc(C(=O)Nc3ccc(OC)cc3OC)ccc2C1Nc1ccc(OC)cc1OC (stereo not drawn) | – | inconclusive: 20.6 µM [inhibitor, single point]
4 | CC(C)=CCc1c(O)cc2oc3c(CC=C(C)C)c(O)c(O)c(CC=C(C)C)c3c(=O)c2c1O | – | inconclusive: 32.6 µM [inhibitor, single point]
5 | O=C(c1ncn(Cc2ccccc2)c1C(=O)N1CCc2ccccc2C1)N1CCc2ccccc2C1 | inactive: -4.07% | –
6 | CC(C)c1nc(SCC(=O)N2CCN(c3ccccc3)CC2)c2c(=O)n(C)c(=O)n(C)c2n1 | – | inconclusive: 0.206 µM [inhibitor, full curve, poor fit]
7 | NC(=O)c1c(NC(=O)c2ccco2)sc2c1CCC2 | – | inconclusive: 4.61 µM [activator, partial curve]
8 | O=C(NNC(=O)c1sccc1-n1cccc1)c1cccc(Cl)c1 | – | inconclusive: 16.4 µM [inhibitor, partial curve]
9 | CC(C(=O)Nc1ccc(F)c(F)c1F)N(C)Cc1cccs1 (stereo not drawn) | inactive: -0.213% | –
10 | O=C(Nc1ccc(Cl)cn1)c1ccc([N+](=O)[O-])o1 | inactive: -24.3% | –
11 | Cn1c2ccccc2c2c(C(=O)N3CCN(c4ccccn4)CC3)cn(C3CCCC3)c(=O)c21 | – | inconclusive: 20.6 µM [inhibitor, partial curve]
12 | COc1cc(/C=N/NC(=O)c2cccc([N+](=O)[O-])c2)ccc1OCc1ccccc1 | – | inconclusive: 8.2 µM [inhibitor, partial curve]
13 | O=C(O)/C=C/C(=O)c1c(-c2ccccc2)[nH]c2ccccc12 | – | inconclusive: 6.51 µM [inhibitor, full curve, poor fit]
14 | O=C(Cn1nnc(-c2cc(Cl)ccc2-n2cnnn2)n1)N1CCCc2ccccc21 | – | inconclusive: 16.4 µM [inhibitor, partial curve, poor fit]
15 | O=C(CCSCc1ccccc1Cl)NC1CCCC1 | – | inconclusive: 18.4 µM [activator, partial curve, poor fit]
16 | CCc1cc(=O)oc2cc(C)c(CN3CCCC3)c(O)c12 | inactive: -0.806% | –
17 | Cc1ccc(NC(=O)Nc2cnccn2)cc1 | – | inconclusive: 10.3 µM [activator, partial curve]
18 | N=c1c(C(=O)NCCc2ccccc2)cc2c(=O)n3ccccc3nc2n1Cc1ccco1 | – | active: 20.6 µM
19 | COc1ccc(CNC(=O)CN(C(=O)c2cc3sccc3n2C)C2CCCC2)cc1 | – | inconclusive: 25.9 µM [inhibitor, single point]
20 | Nc1nc(N2CCN(c3ccccc3)CC2)n[nH]1 | – | inconclusive: 9.2 µM [activator, partial curve, poor fit]
21 | Cc1ccc(C)c(N2CCN(C(=O)CCc3nc(-c4ccccc4Cl)no3)CC2)c1 | – | inconclusive: 20.6 µM [inhibitor, single point]
22 | CC1CCCN(CCCNC(=O)c2cc3c(s2)-c2ccccc2OC3)C1 (stereo not drawn) | – | inconclusive: 18.3 µM [activator, single point]
23 | Cc1cccnc1NC(=S)NCCc1ccccc1 | – | inconclusive: 14.6 µM [activator, partial curve]

Row | Compound | activity change, negative = inhibition | Potency
24 | CCOC(CNC(=O)CN1C(=O)COc2ccc(S(=O)(=O)N3CCOCC3)cc21)OCC | – | inconclusive: 23.1 µM [activator, partial curve, poor fit]
25 | C=CCN(c1ccc(C(=O)Nc2cccc([N+](=O)[O-])c2)cc1)S(C)(=O)=O | – | inconclusive: 18.3 µM [inhibitor, single point]
26 | Brc1ccc(-c2nnc(-c3ccc4c(c3)OCO4)o2)o1 | – | inconclusive: 2.91 µM [activator, partial curve, poor fit]
27 | O=S(=O)(c1ccccc1)N1CCN(C(=S)NC2CCCC2)CC1 | – | inconclusive: 1.03 µM [inhibitor, full curve]
28 | COc1cc2c(cc1OC)C(c1cccs1)N(C(=S)NC(C)C)CC2 (stereo not drawn) | inactive: -21.6% | –
29 | O=C(NCCCN1CCOCC1)c1ccc(CSc2ccc(Cl)cc2)cc1 | – | inconclusive: 20.6 µM [inhibitor, partial curve, poor fit]
30 | CCc1nnc(NC(=O)CSc2nnnn2-c2cccc(C(=O)OC)c2)s1 | inactive: 0.0639% | –
31 | Cc1ccc(S(=O)(=O)NC(CC(C)C)C(=O)NCC(c2ccco2)N2CCCCC2)cc1 (stereo not drawn) | – | inconclusive: 8.2 µM [activator, partial curve]
32 | CCn1ncc(Br)c1C(=O)N(C)C12CC3CC(CC(C3)C1)C2 | – | inconclusive: 20.6 µM [inhibitor, partial curve, poor fit]
33 | O=C(Cc1ccc(Br)cc1)Nc1cccc(S(=O)(=O)N2CCOCC2)c1 | – | inconclusive: 29.1 µM [inhibitor, single point]
34 | COc1cccc(C(=O)NCc2ccc3[nH]c(C)cc3c2)c1 | – | inconclusive: 20.6 µM [inhibitor, single point]
35 | COCCCNC(=O)/C(C#N)=C/c1c(N2CCN(c3ccccc3)CC2)nc2c(C)cccn2c1=O | – | active: 20.6 µM
36 | O=C(COc1ccccc1Cl)Nc1ccc(Cl)cn1 | – | inconclusive: 2.91 µM [activator, partial curve]
37 | Cc1cccc(/C=N/NC(=O)C(C)Nc2cccc3ccccc23)n1 (stereo not drawn) | – | inconclusive: 32.6 µM [inhibitor, partial curve, poor fit]
38 | O=C(c1ccc(N2CCOCC2)nc1)N1CCCCC1 | – | inconclusive: 29.1 µM [activator, partial curve, poor fit]
39 | COc1ccccc1OCCCn1cc(C#N)c2ccccc21 | inactive: 10.8% | –
40 | COC(=O)C1=CN(Cc2ccc(OC)c(OC)c2)C=C(C(=O)OC)C1c1cccs1 | – | inconclusive: 29.1 µM [inhibitor, single point]
41 | CCN(CC(=O)Nc1c(F)cccc1F)C(=O)CCCc1cccs1 | inactive: 0.857% | –
42 | N#Cc1ccccc1NC(=O)CNc1ccccc1N1CCCCC1 | – | inconclusive: 20.6 µM [inhibitor, single point]
43 | O=C(c1cc(-c2ccc(Cl)cc2)on1)N1CCN(c2ccccc2)CC1 | – | inconclusive: 16.4 µM [activator, partial curve]
44 | O=C(CCC1CCCN(C(=O)c2cc(C3CC3)[nH]n2)C1)N1CCN(c2ccccn2)CC1 (stereo not drawn) | – | inconclusive: 14.6 µM [inhibitor, partial curve, poor fit]
45 | O=C(CSc1nnc(C2COc3ccccc3O2)o1)N1CCCCC1 (stereo not drawn) | – | inconclusive: 29.1 µM [activator, single point]
46 | COc1ccc(C(=O)C[n+]2ccccc2/C=N/O)cc1 | – | inconclusive: 18.4 µM [activator, partial curve]

Row | Compound | activity change, negative = inhibition | Potency
47 | C=CCn1c(CCC(=O)Nc2ccc(C)c(Cl)c2)nnc1SCC(=O)Nc1ccccc1C | – | inconclusive: 18.4 µM [inhibitor, partial curve, poor fit]
48 | O=[N+]([O-])C(=C1Nc2ccccc2N1)C(Cl)=C(Cl)Cl | – | inconclusive: 16.4 µM [activator, partial curve]
49 | CCCCNC(=S)NCc1ccc2c(c1)cc(C)n2C | inactive: 12.3% | –
50 | CN(C)C(=O)c1ccc(-c2cc3onc(-c4ccccc4)c3c(=O)n2C)cc1 | – | inconclusive: 0.82 µM [activator, full curve]
51 | CCN(CC)CCn1c(NC(=O)c2ccc(Cl)cc2)nc2ccccc21 | – | inconclusive: 16.4 µM [activator, partial curve, poor fit]
52 | Cn1c(SCC(=O)N/N=C/C=C/c2ccco2)nc2ccccc21 | inactive: -15% | –
53 | CC1CCN(C(=O)c2ccc(NC(=O)c3ccccc3)cc2)CC1 | inactive: 6.22% | –
54 | Cc1ccc(S(=O)(=O)N2CCC(C(=O)N/N=C/c3cccnc3)CC2)cc1 | inactive: -1.92% | –
55 | CC1(C)CC(=O)C2=C(C1)OC(N)=C(C#N)C21CCN(C(=O)OCc2ccccc2)CC1 | – | inconclusive: 4.61 µM [inhibitor, single point]
56 | COc1cccc(NC(=O)n2ncc3c(C)cccc32)c1 | – | inconclusive: 1.64 µM [activator, partial curve]
57 | COc1ccc(C)cc1NC(=O)C(=O)c1cn(CC(=O)N2CCCC2)c2ccccc12 | – | inconclusive: 29.1 µM [inhibitor, partial curve, poor fit]
58 | CCCCNCc1cc(OCC)c(OCC)cc1Br | inactive: 0% | –
59 | O=C(NCC1CCCO1)c1coc2nc3ccccc3nc12 (stereo not drawn) | – | inconclusive: 20.6 µM [activator, partial curve, poor fit]
60 | Cc1c(CC(=O)N2CCN(C(=O)C3COc4ccccc4O3)CC2)c(=O)oc2cc(O)ccc12 (stereo not drawn) | – | active: 0.73 µM
61 | CC(C)(CNC(=O)CC1C(=O)NCCN1Cc1cccc(F)c1F)N1CCOCC1 (stereo not drawn) | – | inconclusive: 8.2 µM [activator, partial curve]
62 | COCCNC(=O)c1ccc(C(=O)C(=O)c2ccccc2)cc1 | inactive: -0.7% | –
63 | CCC1C(=O)C(CC)C(c2ccccc2)NC1c1ccccc1 (stereo not drawn) | inactive: -9.51% | –
64 | Cc1c(N=Cc2ccco2)c(=O)n(-c2ccccc2)n1C | inactive: -2.38% | –
65 | CC1CCc2sc(C(=O)NCCCn3ccnc3)cc2C1 (stereo not drawn) | inconclusive: 18.2% [activator] | –
66 | CCn1c(O)c(N=NC(=S)NCC2CCCO2)c2ccccc21 (stereo not drawn) | inactive: 0% | –
67 | Cn1cc(C2=C(c3ccc(Cl)cc3Cl)C(=O)NC2=O)c2ccccc21 | – | inconclusive: 25.9 µM [inhibitor, single point]
68 | COc1ccc(/C(C#N)=C/c2cccnc2)cc1 | – | inconclusive: 29.1 µM [activator, single point]

Copied from the list:
CC(C)(CNC(=O)CC1C(=O)NCCN1Cc1cccc(F)c1F)N1CCOCC1 (stereo not drawn) | Potency: inconclusive: 8.2 µM [activator, partial curve]
CCCCNC(=S)NCc1ccc2c(c1)cc(C)n2C | activity change, negative = inhibition: inactive: 12.3%
CCN(CC)CCn1c(NC(=O)c2ccc(Cl)cc2)nc2ccccc21 | Potency: inconclusive: 16.4 µM [activator, partial curve, poor fit]
